Values of other authors, collected in US6410239B1, “Identification and comparison of protein—protein interactions that occur in populations and identification of inhibitors of these interactors” (CuraGen Corporation, priority 1996, dated 2002).
At least one compound was matched to its structure with a doubt left.

Tested on: interaction of R4 with FKBP-12
Conditions: cited from earlier work

In the case of `C=CC[C@@H]1/C=C(\C)C[C@H](C)C[C@H](OC)[C@H]2O[C@@](O)(C(=O)C(=O)N3CCCC[C@H]3C(=O)O[C@H](/C(C)=C/[C@@H]3CC[C@@H](O)[C@H](OC)C3)[C@H](C)[C@@H](O)CC1=O)[C@H](C)C[C@@H]2OC` [FK506], the “effect on interaction of R4 with FKBP-12 in the yeast two-hybrid system” value (FK506 final concentration of 1 μM) is given as “inhibit the interaction” and the “effect on R4 / FKBP-12 interaction in the yeast two-hybrid assay” value is given as “blocked”.
